According to US20150168399A1 (INSERM INSTITUT NATIONAL DE LA SANTE ET DE LA RECHERCHE …, published 2015):
These are yes or no findings as the source states them, for the method shown. Some binding calls cover weakened binding; strength is not graded here.

Sequences of proteins named here, by UniProt entry; tags and fusion partners are left off. A change or cut given only in a name is not applied to a line headed by its entry.
UniProt P20701: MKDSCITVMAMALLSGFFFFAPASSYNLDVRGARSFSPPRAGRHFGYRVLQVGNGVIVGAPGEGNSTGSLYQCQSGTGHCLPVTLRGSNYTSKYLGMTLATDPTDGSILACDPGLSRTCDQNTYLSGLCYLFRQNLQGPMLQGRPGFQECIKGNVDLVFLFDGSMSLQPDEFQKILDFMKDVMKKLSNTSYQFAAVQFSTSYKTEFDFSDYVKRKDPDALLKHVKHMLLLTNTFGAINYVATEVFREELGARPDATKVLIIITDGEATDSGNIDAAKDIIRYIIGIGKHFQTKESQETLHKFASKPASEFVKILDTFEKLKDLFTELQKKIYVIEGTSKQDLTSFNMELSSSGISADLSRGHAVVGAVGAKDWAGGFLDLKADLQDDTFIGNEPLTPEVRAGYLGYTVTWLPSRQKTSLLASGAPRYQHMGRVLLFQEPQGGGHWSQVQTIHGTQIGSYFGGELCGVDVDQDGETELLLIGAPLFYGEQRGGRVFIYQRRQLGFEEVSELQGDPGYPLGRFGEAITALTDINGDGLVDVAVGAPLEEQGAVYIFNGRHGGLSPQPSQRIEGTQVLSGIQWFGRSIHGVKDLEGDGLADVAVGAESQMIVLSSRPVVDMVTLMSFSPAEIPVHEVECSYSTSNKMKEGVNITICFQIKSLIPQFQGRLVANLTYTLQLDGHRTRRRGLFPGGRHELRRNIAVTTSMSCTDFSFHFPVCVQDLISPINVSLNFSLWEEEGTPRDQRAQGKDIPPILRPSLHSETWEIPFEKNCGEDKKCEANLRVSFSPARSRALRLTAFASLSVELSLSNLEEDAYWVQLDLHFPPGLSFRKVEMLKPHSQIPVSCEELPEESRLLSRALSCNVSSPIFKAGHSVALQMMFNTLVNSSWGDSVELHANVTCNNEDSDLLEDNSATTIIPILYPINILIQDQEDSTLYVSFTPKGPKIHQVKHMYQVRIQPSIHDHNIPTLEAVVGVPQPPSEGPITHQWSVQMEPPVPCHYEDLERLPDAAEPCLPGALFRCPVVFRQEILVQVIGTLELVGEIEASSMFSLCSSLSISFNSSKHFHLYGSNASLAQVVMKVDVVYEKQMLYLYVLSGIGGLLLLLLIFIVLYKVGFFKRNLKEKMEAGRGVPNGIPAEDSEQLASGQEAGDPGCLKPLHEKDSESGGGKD
UniProt P05107: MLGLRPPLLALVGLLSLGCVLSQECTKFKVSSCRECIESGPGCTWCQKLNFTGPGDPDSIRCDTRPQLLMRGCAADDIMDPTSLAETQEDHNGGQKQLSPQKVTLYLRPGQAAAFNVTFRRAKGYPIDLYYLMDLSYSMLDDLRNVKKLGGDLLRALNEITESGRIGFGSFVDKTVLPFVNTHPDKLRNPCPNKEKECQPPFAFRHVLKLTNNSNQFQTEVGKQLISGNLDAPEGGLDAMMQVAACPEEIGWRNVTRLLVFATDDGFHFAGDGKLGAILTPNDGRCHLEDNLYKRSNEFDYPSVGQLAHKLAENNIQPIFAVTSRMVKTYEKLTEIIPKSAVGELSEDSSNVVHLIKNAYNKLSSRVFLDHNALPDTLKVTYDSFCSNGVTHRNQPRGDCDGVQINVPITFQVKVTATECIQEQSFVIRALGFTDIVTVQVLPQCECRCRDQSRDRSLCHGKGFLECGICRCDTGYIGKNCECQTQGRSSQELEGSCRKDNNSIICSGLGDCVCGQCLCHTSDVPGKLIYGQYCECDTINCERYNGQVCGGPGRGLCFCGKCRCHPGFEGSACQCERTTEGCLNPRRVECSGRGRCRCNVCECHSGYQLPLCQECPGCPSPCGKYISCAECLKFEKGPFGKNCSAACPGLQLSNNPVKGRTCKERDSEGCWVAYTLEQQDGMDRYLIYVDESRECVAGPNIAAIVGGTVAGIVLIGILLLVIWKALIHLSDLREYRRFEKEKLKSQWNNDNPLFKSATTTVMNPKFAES

Molecular target: human leukocyte integrin LFA-1 (CD11a/CD18) on Jurkat cells or human NK cells (human) (UniProt P20701+P05107)
Test: competition on Jurkat cells, bound endocan in lysate by ELISA

binding: binds
B1: endocan p14 derived from cathepsin G-treated endocan (peptide)
chain: WSNNYAVDCPQHCDSSECKSSPRCKRTVLDDCGCCRVCAAGRGETCYRTVSGMDGMKCGPGLRCQPSNGEDPFGEEFGICKDCPYGTFGMDCRETCNCQSGICDRGTGKCLKFPFF
